Experimental data from PubChem BioAssay AID493014 (National Center for Advancing Translational Sciences (NCATS), 2011).
Screen size: about 340,000 compounds; about 170 (0.05%) were called active. This list was built around the results that the source calls inconclusive (neither active nor inactive); the mix of calls is not that of the screen. Calls follow the shape of the dose curve; as a rule, active = well fitted inhibition curve with a large enough effect in the signal ratio, with a control signal flat (not every such curve was filed as active); inconclusive = small, poorly fitted or top-dose-only effect, or effect the other way, or a change in a side signal; inactive = flat fitted curve, though single readings scatter; the % refers to the signal ratio. Potencies beside an inconclusive call are fits to weak or partial responses and may not hold up.

Assay: qHTS Assay to Find Inhibitors of Chronic Active B-Cell Receptor Signaling;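 as to activity change, negative = inhibition: plate controls were basal doxycycline-induced cells for no effect and cells given 10 µM MG132 for full effect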
Conditions: ABC-DLBCL IkBa-CBG/CBR reporter, luminescence ratio (green luciferase fused to IkBa over red control in TMD8 lymphoma cells), 4 h; activity change, negative = inhibition: at 46.1 µM (top of the series) unless noted
How it was run: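 Cell line TMD8 (human ABC DLBCL), stably expressing tet-inducible CBG68-IkBa fusion and CBR; IMDM/0.5% FBS; cpd up to 46 uM; dox induction, 4 h, 37C/5% CO2; dual luminescence; green/red ratio; MG132 control.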
Potency is read from the fitted curve at half-maximal effect.

Row | Compound | Potency | activity change, negative = inhibition
1 | CCOc1ccc(C(=O)O/N=C(\N)c2ccccn2)cc1 | inconclusive: 35.5 µM [rising, single point] | –
2 | O=[N+]([O-])c1ccc(Cl)c(S(=O)(=O)Nc2cccc(-c3ccc(N4CCCC4)nn3)c2)c1 | – | inconclusive: 8.85%
3 | Cn1nc(C(=O)Nc2ccc3c(c2)OCCO3)cc1C(=O)O | inconclusive: 22.4 µM [falling, single point] | –
4 | COC(=O)C1=CN(Cc2ccccc2)C=C(C(=O)OC)C1c1ccc(O)c(OC)c1 | – | inconclusive: 4.34%
5 | Cn1cc(Br)c(C(=O)NNC(=O)c2ccc(Cl)cc2)n1 | inconclusive: 23.1 µM [falling, partial curve] | –
6 | O=C(Nc1cccc(C(F)(F)F)c1)c1ccc2nc(N3C(=O)CCC3=O)sc2c1 | inconclusive: 25.1 µM [falling, single point] | –
7 | CCC(=O)Nc1ccc(C(=O)CSc2nnc(-c3ccc(O)cc3)n2CC2CCCO2)cc1 (stereo not given) | – | inconclusive: 1.63%
8 | CS(=O)(=O)N1CCN(C(=O)Cc2ccc(Br)cc2)CC1 | – | inactive
9 | Cc1ccc2c(c1)N(CC(=O)N1CCCc3ccccc31)C(=O)C(C)O2 (stereo not given) | – | inconclusive: 0.0426%
10 | CCOC(=O)C1=C(C)c2ccccc2OC1(C(=O)OCC)C(C)C (stereo not given) | – | inactive
11 | CCOc1ncccc1C(=O)NNC(=O)c1cccc(S(=O)(=O)Nc2ccc(OC)cc2)c1 | – | inactive
12 | CCOC(=O)C1CCN(C(=O)CCN2C(=O)C3C4C=CC(C4)C3C2=O)CC1 (stereo not given) | – | inconclusive: -7.1%
13 | O=S(=O)(c1ccccc1Br)N(CC(O)COCc1ccccc1)C1CC1 (stereo not given) | – | inactive
14 | CCc1ccc(N/C(SC)=C(/C#N)C(N)=O)cc1 | inconclusive: 15.8 µM [falling, partial curve, poor fit] | –
15 | CCN(CC)CC(=O)Nc1scc2c1c(=O)oc1ccccc12 | inconclusive: 3.16 µM [rising, full curve] | –
16 | CCc1nc2ccccc2c(C(=O)OCC(=O)N(CC(C)C)c2c(N)n(Cc3ccccc3)c(=O)[nH]c2=O)c1C | – | inconclusive: -0.141%
17 | CCn1nc(C)c(/C=N\NC(=O)c2ccc3c(c2)OCO3)c1C | inconclusive: 23.1 µM [falling, partial curve] | –
18 | COc1cc(CCC(=O)NCc2ccc3c(c2)CCN3C(=O)c2ccc(F)cc2)cc(OC)c1OC | – | inconclusive: 7.24%
19 | O=C(NCc1ccccc1)c1ccc(-c2ccccc2C(F)(F)F)o1 | inconclusive: 18.4 µM [falling, partial curve, poor fit] | –
20 | O=C(N/N=C/c1ccc2cccnc2c1)c1ccco1 | inconclusive: 15.8 µM [falling, partial curve] | –
21 | CCN(CC)S(=O)(=O)c1ccc(NC2c3ccccc3C(=O)N2Cc2ccco2)cc1 (stereo not given) | inconclusive: 35.5 µM [falling, partial curve, poor fit] | –
22 | Cn1c(SCc2ccccc2F)nnc1-c1ccccn1 | inconclusive: 35.5 µM [falling, partial curve, poor fit] | –
23 | CCC(C)NC(=O)c1cc2c(=O)n3cccc(C)c3nc2s1 (stereo not given) | – | inconclusive: 1.17%
24 | COc1cc2ccccc2cc1C(=O)N1CCN(c2nc3ccc(F)cc3s2)CC1 | – | inactive
25 | O=C(CN1CCN(c2ccccn2)CC1)NCCc1ccccc1 | – | inactive
26 | CSc1c[n+]2c(n1C)CCC2 | – | inactive
27 | FC(F)(F)c1cc(-c2cccs2)nc2ncnn12 | – | inconclusive: 0.744%

Entries 6 through 19, reprinted for reference:
Row | Compound | Potency | activity change, negative = inhibition
6 | O=C(Nc1cccc(C(F)(F)F)c1)c1ccc2nc(N3C(=O)CCC3=O)sc2c1 | inconclusive: 25.1 µM [falling, single point] | –
7 | CCC(=O)Nc1ccc(C(=O)CSc2nnc(-c3ccc(O)cc3)n2CC2CCCO2)cc1 (stereo not given) | – | inconclusive: 1.63%
8 | CS(=O)(=O)N1CCN(C(=O)Cc2ccc(Br)cc2)CC1 | – | inactive
9 | Cc1ccc2c(c1)N(CC(=O)N1CCCc3ccccc31)C(=O)C(C)O2 (stereo not given) | – | inconclusive: 0.0426%
10 | CCOC(=O)C1=C(C)c2ccccc2OC1(C(=O)OCC)C(C)C (stereo not given) | – | inactive
11 | CCOc1ncccc1C(=O)NNC(=O)c1cccc(S(=O)(=O)Nc2ccc(OC)cc2)c1 | – | inactive
12 | CCOC(=O)C1CCN(C(=O)CCN2C(=O)C3C4C=CC(C4)C3C2=O)CC1 (stereo not given) | – | inconclusive: -7.1%
13 | O=S(=O)(c1ccccc1Br)N(CC(O)COCc1ccccc1)C1CC1 (stereo not given) | – | inactive
14 | CCc1ccc(N/C(SC)=C(/C#N)C(N)=O)cc1 | inconclusive: 15.8 µM [falling, partial curve, poor fit] | –
15 | CCN(CC)CC(=O)Nc1scc2c1c(=O)oc1ccccc12 | inconclusive: 3.16 µM [rising, full curve] | –
16 | CCc1nc2ccccc2c(C(=O)OCC(=O)N(CC(C)C)c2c(N)n(Cc3ccccc3)c(=O)[nH]c2=O)c1C | – | inconclusive: -0.141%
17 | CCn1nc(C)c(/C=N\NC(=O)c2ccc3c(c2)OCO3)c1C | inconclusive: 23.1 µM [falling, partial curve] | –
18 | COc1cc(CCC(=O)NCc2ccc3c(c2)CCN3C(=O)c2ccc(F)cc2)cc(OC)c1OC | – | inconclusive: 7.24%
19 | O=C(NCc1ccccc1)c1ccc(-c2ccccc2C(F)(F)F)o1 | inconclusive: 18.4 µM [falling, partial curve, poor fit] | –

Following part

Row | Compound | Potency | activity change, negative = inhibition
28 | Cc1ccnc(NC(=O)C2CCN(S(=O)(=O)c3ccc4c(c3)CC(C)N4C(=O)C3CCC3)CC2)c1 (stereo not given) | – | inconclusive: -1.63%
29 | COC(=O)c1cc(C(=O)N2CCN(c3cccc(Cl)c3)CC2)cc([N+](=O)[O-])c1 | inconclusive: 7.08 µM [falling, partial curve, poor fit] | –
30 | COC(=O)Nc1nc(C)c(C(=O)c2ccccc2)s1 | inconclusive: 2.31 µM [rising, full curve] | –
31 | Cc1noc(C)c1COC(=O)c1ccc2c(c1)OCCO2 | inconclusive: 16.4 µM [falling, single point] | –
32 | CCCn1c(Sc2nc3c(c(=O)[nH]c(=O)n3C)n2CCC)nc2c1c(=O)[nH]c(=O)n2C | inconclusive: 4.47 µM [falling, partial curve, poor fit] | –
33 | O=C1OCCN1C(=O)[C@H]1[C@H](c2ccc(Cl)cc2)C(c2ccc(F)cc2)=NN1c1ccc(Br)cc1 | – | inconclusive: 10.7%
34 | COc1ccc(C(=O)NC(=S)Nc2ccc(N3CCN(C(C)=O)CC3)cc2)cc1[N+](=O)[O-] | – | inactive
35 | Cc1ccc(S(=O)(=O)N(C)C)cc1NC(=O)COC(=O)/C(=C/c1ccc(F)cc1)c1cccs1 | – | inconclusive: -1.33%
36 | N#Cc1ccc(-c2csc(NC(=O)/C=C/c3cccs3)n2)cc1 | – | inactive
37 | C/C(=N\NC(=O)c1c(Br)c(C)nn1C)c1cccc(NC(=O)C2CCC2)c1 | inconclusive: 11.2 µM [falling, partial curve] | –
38 | COc1ccc(C2=Nn3c(nnc3-c3ccccc3F)SC2)cc1OC1CCCC1 | active: 5.8 µM | –
39 | COc1cc2c(C#CCCCO)c(-c3ccc(C#N)cc3)oc(=O)c2cc1OC | – | inactive
40 | O=C(NCC(F)(F)F)c1ccc(S(=O)(=O)Nc2ccccc2N2CCCC2)cc1 | – | inactive
41 | COc1ccc(NC(=S)N(CCCN2CCN(C)CC2)Cc2cccs2)cc1 | – | inactive
42 | COc1ccc(/C=N/NC(=O)c2cc(=O)[nH]c3ccccc23)cc1OC | – | inconclusive: 11.5%
43 | CCCn1c(SCC(N)=O)nc2c(c1=O)C1(CCCC1)Cc1ccccc1-2 | – | inactive
44 | CCC(=O)NC(=S)Nc1ccc(N2CCOCC2)cc1 | – | inactive
45 | O=C1C(=O)N(CNc2ccccn2)c2ccccc21 | – | inconclusive: -12.3%
46 | CCc1ccccc1NC(=O)CCc1c(C)nn(-c2ccc(N3CCOCC3)nn2)c1C | – | inactive
47 | CCOC(=O)c1c(NC(=S)NC)sc2c1CCCC2 | – | inconclusive: 13.2%
48 | CCC1CCC2(CC1)NC(=O)N(CC(=O)Nc1cccc(S(=O)(=O)N(C)c3ccccc3)c1)C2=O (stereo not given) | – | inconclusive: 0.12%
49 | Cc1cnn(C(=S)NCc2ccc(Cl)cc2)c1 | inconclusive: 29.1 µM [falling, single point] | –
50 | NC(=S)N/N=C/c1c[nH]c2ccc(OCc3ccccc3)cc12 | – | inconclusive: -13.7%
51 | O=C(CSc1nnc2ccccn12)Nc1ccc2c(c1)OCCO2 | – | inconclusive: -18.3%
52 | Cc1ccc(Cl)cc1-n1ncc2c(Nc3cccc(C)c3C)ncnc21 | – | inconclusive: -188%
53 | Cc1c([N+](=O)[O-])c(N)nn1C | – | inconclusive: 10.5%
54 | O=S(=O)(Cc1nc2ccccc2s1)c1ccccc1 | inconclusive: 23.1 µM [falling, single point] | –

Row | Compound | Potency | activity change, negative = inhibition
55 | COc1cc2c(cc1OC)CN(C(=O)CN1CCN(S(=O)(=O)c3ccccc3Br)CC1)CC2 | – | inconclusive: -65%
56 | Cc1nc(-c2ccccn2)sc1C(=O)Nc1ccc(Cl)c(Cl)c1 | inconclusive: 6.31 µM [rising, partial curve] | –
57 | O=C(Nc1nnc(C2CC2)o1)c1ccc(S(=O)(=O)N2CCc3ccccc3C2)cc1 | – | inactive
58 | O=C(NCCc1nc2ccccc2[nH]1)c1ccc(Br)o1 | – | inactive
59 | Cc1ccc(Nc2c(-c3ccccn3)nc3cccc(C)n23)cc1 | – | inconclusive: 9.25%
60 | CC[N+](CC)(CC=C(C)C)CC(=O)OC | – | inconclusive: 27.4%
61 | COCc1ccc(C(=O)Nc2ccccc2C(=O)NCc2cccnc2)cc1 | inconclusive: 35.5 µM [falling, partial curve, poor fit] | –
62 | CN1CCN(NC(=O)c2cc(-c3ccc(Br)s3)nc3ccccc23)CC1 | – | inactive
63 | COc1cc(S(=O)(=O)n2ccc(C)n2)c(OC)cc1Cl | – | inconclusive: 6.56%
64 | Nc1ccccc1C(=O)Nc1nccs1 | – | inconclusive: 10.5%
65 | O=C(CSc1ncnc2c1nnn2Cc1ccccc1)NC1CCCC1 | – | inconclusive: -1.26%
66 | COCC(C)NC(=O)c1cc2cc(OC)ccc2[nH]1 (stereo not given) | inconclusive: 0.562 µM [rising, full curve, poor fit] | –
67 | COc1ccccc1N(C)S(=O)(=O)c1ccc(C(=O)OCC(=O)Nc2cc(C)on2)cc1 | – | inactive
68 | O=C(COC(=O)C1(c2ccccc2F)CCCC1)NCc1cccs1 | – | inactive
69 | COc1cc2c(cc1OC)-c1cc(NC3CCCC3)nc(=O)n1CC2 | active: 15.8 µM | –
70 | O=S(=O)(Nc1ccc2c(c1)OCO2)c1cccc(Br)c1 | – | inactive
71 | O=C(NCc1cc2ccccc2[nH]1)c1ccccc1F | inconclusive: 12.6 µM [falling, partial curve] | –
72 | COc1ccc(N(C(=O)c2cccnc2)S(=O)(=O)c2ccc(Cl)cc2)cc1 | – | inactive
73 | COc1ccc(-c2csc(NCc3ccco3)n2)cc1 | – | inactive
74 | O=C(CCc1ccccc1)N/N=C/c1cc(Br)ccc1O | – | inconclusive: 6.43%
75 | Cc1cc(C)c2c(c1)/C(=N/NC(=O)c1cc(C)oc1C)CCC2 | inconclusive: 8.2 µM [falling, partial curve] | –
76 | COCC(C)NC(=O)c1cc(-c2cccc(OC)c2)on1 (stereo not given) | inconclusive: 2.82 µM [falling, partial curve] | –
77 | Cc1ccc(NC(=O)C(=O)Nc2ccc(C)cn2)nc1 | inconclusive: 0.447 µM [falling, full curve] | –
78 | CC1=NN(C(=O)c2ccco2)C(O)(c2ccccc2)C1 (stereo not given) | inconclusive: 14.1 µM [falling, single point] | –
79 | CCC1=C(OC(=O)N(CC)CC)N2C(=O)OC(=NCC3CC3)[C@]2(Cc2ccccc2)[C@H]2C1=CC[C@H]1C(=O)N(c3ccccc3)C(=O)[C@H]12 | – | inconclusive: 0.105%
80 | CC(=O)N1N=C2/C(=C/c3ccccc3)CCCC2C1c1ccccc1 (stereo not given) | – | inconclusive: 18.8%
